According to paper PMC11162468:
Results are given in words; binding and its absence hold for the method and conditions named. Binding seen in cells or lysates may run through a third protein. Some results given as binding are weak or reduced against the parent protein; the word gives no strength.

Amino acid sequences for entries named in this document (tags omitted). A change or cut given only in a name is not applied to a line headed by its entry. Residues count along the entry.
UniProt P06213, residues 28-1382: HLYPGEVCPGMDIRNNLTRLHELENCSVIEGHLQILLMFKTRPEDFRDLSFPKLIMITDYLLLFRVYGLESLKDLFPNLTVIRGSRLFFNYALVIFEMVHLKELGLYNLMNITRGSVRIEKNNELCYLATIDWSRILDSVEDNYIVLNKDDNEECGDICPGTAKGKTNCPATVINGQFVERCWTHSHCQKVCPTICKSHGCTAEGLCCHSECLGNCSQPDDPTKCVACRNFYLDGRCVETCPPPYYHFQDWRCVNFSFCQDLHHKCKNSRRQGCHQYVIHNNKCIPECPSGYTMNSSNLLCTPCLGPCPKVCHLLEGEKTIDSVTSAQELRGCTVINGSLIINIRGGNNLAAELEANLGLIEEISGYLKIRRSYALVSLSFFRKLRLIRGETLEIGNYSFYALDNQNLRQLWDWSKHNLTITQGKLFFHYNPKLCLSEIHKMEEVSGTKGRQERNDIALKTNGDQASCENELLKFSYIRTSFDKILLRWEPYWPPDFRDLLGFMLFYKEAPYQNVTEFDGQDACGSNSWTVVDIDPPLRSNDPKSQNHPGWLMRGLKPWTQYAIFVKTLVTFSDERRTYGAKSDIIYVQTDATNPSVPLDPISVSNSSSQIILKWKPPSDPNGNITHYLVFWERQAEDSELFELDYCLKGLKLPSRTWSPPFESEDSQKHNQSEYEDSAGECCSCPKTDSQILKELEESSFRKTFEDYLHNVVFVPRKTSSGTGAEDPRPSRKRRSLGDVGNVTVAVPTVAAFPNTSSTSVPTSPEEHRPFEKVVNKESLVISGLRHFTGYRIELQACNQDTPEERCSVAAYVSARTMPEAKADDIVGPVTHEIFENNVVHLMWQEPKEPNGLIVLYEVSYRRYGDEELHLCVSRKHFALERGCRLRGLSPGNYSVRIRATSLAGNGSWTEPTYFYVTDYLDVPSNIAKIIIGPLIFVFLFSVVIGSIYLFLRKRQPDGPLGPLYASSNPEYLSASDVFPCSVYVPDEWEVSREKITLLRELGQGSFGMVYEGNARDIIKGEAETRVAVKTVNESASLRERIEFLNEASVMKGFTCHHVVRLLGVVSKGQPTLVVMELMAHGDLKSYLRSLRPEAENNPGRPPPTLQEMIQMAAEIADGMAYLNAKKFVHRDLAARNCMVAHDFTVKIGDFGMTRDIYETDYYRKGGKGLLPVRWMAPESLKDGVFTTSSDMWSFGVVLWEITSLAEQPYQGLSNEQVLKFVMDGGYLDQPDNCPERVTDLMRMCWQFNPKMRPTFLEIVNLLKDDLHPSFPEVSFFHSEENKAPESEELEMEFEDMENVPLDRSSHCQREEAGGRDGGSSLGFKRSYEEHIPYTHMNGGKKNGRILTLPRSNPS
UniProt P06748: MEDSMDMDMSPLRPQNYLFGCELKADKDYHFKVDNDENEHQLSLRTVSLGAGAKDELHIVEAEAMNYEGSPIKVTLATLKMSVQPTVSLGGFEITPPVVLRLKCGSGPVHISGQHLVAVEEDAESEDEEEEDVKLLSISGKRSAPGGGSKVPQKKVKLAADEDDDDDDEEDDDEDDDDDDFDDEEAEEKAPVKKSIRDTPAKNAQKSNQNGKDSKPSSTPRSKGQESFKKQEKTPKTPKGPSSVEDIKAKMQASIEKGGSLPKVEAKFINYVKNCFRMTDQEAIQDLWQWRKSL

Legend:
[1] = target: insulin receptor (IR) (human (endogenous in A549 and H226Br)) (UniProt P06213); experiment: co-IP; A549 cells with IGF2; immunoprecipitants from 500 ug of nuclear extract using IR- or NPM1-targeting antibodies; endogenous proteins
[2] = target: FLAG-tagged full-length (FL) NPM1 (UniProt P06748); experiment: co-IP; H226Br cells expressing FLAG-tagged NPM1 (FL, truncation or deletion mutants), stimulated with IGF2 for 3 h; IP with an anti-FLAG antibody

| binding [1] | binding [2] | Substance |
| --- | --- | --- |
| binds | – | nucleophosmin (NPM1) (from UniProt P06748-1 1-294) |
| – | binds | insulin receptor (IR) (from UniProt P06213-1 28-1382) |
